# The list shows a part of the results.
# How the values were obtained:
# Experiment in all cases: glycan array binding signal (z-score within array); higher = stronger binding
# Settings in all cases: glycan notation: IUPAC condensed, linker removed
# [1] = molecular target: Neu5Ac(a2-3)Gal(b1-4)GlcNAc(b1-6)GalNAc
# How it was run: (§1)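 Negative Z-scores can be read as non-binding. The Z-score is calculated within each array and then averaged across arrays of one protein sequence at different concentrations or buffers and across linkers. Arrays, 3228 in all, were curated from the Consortium for Functional Glycomics database and kept only where the protein sequence was available.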
# [2] = molecular target: Neu5Ac(a2-3)Gal(b1-4)GlcNAc(b1-6)[Gal(b1-3)]GalNAc
# How it was run: as §1
# [3] = molecular target: Neu5Ac(a2-3)Gal(b1-4)GlcNAc(b1-6)[Neu5Ac(a2-3)Gal(b1-3)]GalNAc
# How it was run: as §1
# [4] = molecular target: Neu5Ac(a2-3)Gal(b1-4)GlcNAc6S
# How it was run: as §1
# [5] = molecular target: Neu5Ac(a2-3)Gal(b1-4)[Fuc(a1-3)]GlcNAc
# How it was run: as §1
# [6] = molecular target: Neu5Ac(a2-3)Gal(b1-4)[Fuc(a1-3)]GlcNAc(b1-2)Man
# How it was run: as §1
# [7] = molecular target: Neu5Ac(a2-3)Gal(b1-4)[Fuc(a1-3)]GlcNAc(b1-3)Gal
# How it was run: as §1
# [8] = molecular target: Neu5Ac(a2-3)Gal(b1-4)[Fuc(a1-3)]GlcNAc(b1-3)Gal(b1-4)GlcNAc
# How it was run: as §1
# [9] = molecular target: Neu5Ac(a2-3)Gal(b1-4)[Fuc(a1-3)]GlcNAc(b1-3)Gal(b1-4)[Fuc(a1-3)]GlcNAc(b1-3)Gal(b1-4)[Fuc(a1-3)]GlcNAc
# How it was run: as §1
# [10] = molecular target: Neu5Ac(a2-3)Gal(b1-4)[Fuc(a1-3)]GlcNAc(b1-3)GalNAc
# How it was run: as §1
# [11] = molecular target: Neu5Ac(a2-3)Gal(b1-4)[Fuc(a1-3)]GlcNAc(b1-6)[Gal(b1-3)]GalNAc
# How it was run: as §1
# [12] = molecular target: Neu5Ac(a2-3)Gal(b1-4)[Fuc(a1-3)]GlcNAc(b1-6)[Neu5Ac(a2-3)Gal(b1-3)]GalNAc
# How it was run: as §1
# [13] = molecular target: Neu5Ac(a2-3)Gal(b1-4)[Fuc(a1-3)]GlcNAc6S
# How it was run: as §1
# [14] = molecular target: Neu5Ac(a2-3)Gal6S(b1-4)GlcNAc
# How it was run: as §1
# [15] = molecular target: Neu5Ac(a2-3)Gal6S(b1-4)[Fuc(a1-3)]GlcNAc
# How it was run: as §1
# [16] = molecular target: Neu5Ac(a2-3)GalNAc
# How it was run: as §1
# [17] = molecular target: Neu5Ac(a2-3)GalNAc(b1-4)GlcNAc
# How it was run: as §1
# [18] = molecular target: Neu5Ac(a2-3)[GalNAc(b1-4)]Gal(b1-4)Glc
# How it was run: as §1
# [19] = molecular target: Neu5Ac(a2-3)[GalNAc(b1-4)]Gal(b1-4)GlcNAc
# How it was run: as §1
# [20] = molecular target: Neu5Ac(a2-3)[GalNAc(b1-4)]Gal(b1-4)GlcNAc(b1-3)GalNAc
# How it was run: as §1
# [21] = molecular target: Neu5Ac(a2-3)[Neu5Ac(a2-6)]GalNAc
# How it was run: as §1
# [22] = molecular target: Neu5Ac(a2-6)Gal
# How it was run: as §1
# [23] = molecular target: Neu5Ac(a2-6)Gal(b1-3)GlcNAc(b1-3)[Gal(b1-4)GlcNAc(b1-6)]Gal(b1-4)Glc
# How it was run: as §1
# [24] = molecular target: Neu5Ac(a2-6)Gal(b1-4)Glc
# How it was run: as §1
# [25] = molecular target: Neu5Ac(a2-6)Gal(b1-4)GlcNAc
# How it was run: as §1
# [26] = molecular target: Neu5Ac(a2-6)Gal(b1-4)GlcNAc(b1-2)Man
# How it was run: as §1
# [27] = molecular target: Neu5Ac(a2-6)Gal(b1-4)GlcNAc(b1-2)Man(a1-3)Man(b1-4)GlcNAc(b1-4)GlcNAc
# How it was run: as §1
# [28] = molecular target: Neu5Ac(a2-6)Gal(b1-4)GlcNAc(b1-2)Man(a1-3)[Gal(b1-4)GlcNAc(b1-2)Man(a1-6)]Man(b1-4)GlcNAc(b1-4)GlcNAc
# How it was run: as §1
# [29] = molecular target: Neu5Ac(a2-6)Gal(b1-4)GlcNAc(b1-2)Man(a1-3)[GlcNAc(b1-2)Man(a1-6)]Man(b1-4)GlcNAc(b1-4)GlcNAc
# How it was run: as §1
# [30] = molecular target: Neu5Ac(a2-6)Gal(b1-4)GlcNAc(b1-2)Man(a1-3)[GlcNAc(b1-4)][Neu5Ac(a2-6)Gal(b1-4)GlcNAc(b1-2)Man(a1-6)]Man(b1-4)GlcNAc(b1-4)GlcNAc
# How it was run: as §1
# [31] = molecular target: Neu5Ac(a2-6)Gal(b1-4)GlcNAc(b1-2)Man(a1-3)[Man(a1-6)]Man(b1-4)GlcNAc(b1-4)GlcNAc
# How it was run: as §1
# [32] = molecular target: Neu5Ac(a2-6)Gal(b1-4)GlcNAc(b1-2)Man(a1-3)[Neu5Ac(a2-3)Gal(b1-4)GlcNAc(b1-2)Man(a1-6)]Man(b1-4)GlcNAc(b1-4)GlcNAc
# How it was run: as §1
# [33] = molecular target: Neu5Ac(a2-6)Gal(b1-4)GlcNAc(b1-2)Man(a1-3)[Neu5Ac(a2-6)Gal(b1-4)GlcNAc(b1-2)Man(a1-6)]Man(b1-4)GlcNAc(b1-4)GlcNAc
# How it was run: as §1
# [34] = molecular target: Neu5Ac(a2-6)Gal(b1-4)GlcNAc(b1-2)Man(a1-3)[Neu5Ac(a2-6)Gal(b1-4)GlcNAc(b1-2)Man(a1-6)]Man(b1-4)GlcNAc(b1-4)[Fuc(a1-6)]GlcNAc
# How it was run: as §1
# [35] = molecular target: Neu5Ac(a2-6)Gal(b1-4)GlcNAc(b1-2)Man(a1-6)Man(b1-4)GlcNAc(b1-4)GlcNAc
# How it was run: as §1
# [36] = molecular target: Neu5Ac(a2-6)Gal(b1-4)GlcNAc(b1-2)Man(a1-6)[Gal(b1-4)GlcNAc(b1-2)Man(a1-3)]Man(b1-4)GlcNAc(b1-4)GlcNAc
# How it was run: as §1
# [37] = molecular target: Neu5Ac(a2-6)Gal(b1-4)GlcNAc(b1-2)Man(a1-6)[GlcNAc(b1-2)Man(a1-3)]Man(b1-4)GlcNAc(b1-4)GlcNAc
# How it was run: as §1
# [38] = molecular target: Neu5Ac(a2-6)Gal(b1-4)GlcNAc(b1-2)Man(a1-6)[Man(a1-3)]Man(b1-4)GlcNAc(b1-4)GlcNAc
# How it was run: as §1
# [39] = molecular target: Neu5Ac(a2-6)Gal(b1-4)GlcNAc(b1-2)[Neu5Ac(a2-6)Gal(b1-4)GlcNAc(b1-4)]Man(a1-3)[GlcNAc(b1-4)][Neu5Ac(a2-6)Gal(b1-4)GlcNAc(b1-2)[Neu5Ac(a2-6)Gal(b1-4)GlcNAc(b1-6)]Man(a1-6)]Man(b1-4)GlcNAc(b1-4)GlcNAc
# How it was run: as §1
# [40] = molecular target: Neu5Ac(a2-6)Gal(b1-4)GlcNAc(b1-2)[Neu5Ac(a2-6)Gal(b1-4)GlcNAc(b1-4)]Man(a1-3)[GlcNAc(b1-4)][Neu5Ac(a2-6)Gal(b1-4)GlcNAc(b1-4)Man(a1-6)]Man(b1-4)GlcNAc(b1-4)GlcNAc
# How it was run: as §1
# [41] = molecular target: Neu5Ac(a2-6)Gal(b1-4)GlcNAc(b1-2)[Neu5Ac(a2-6)Gal(b1-4)GlcNAc(b1-6)]Man(a1-6)[Neu5Ac(a2-6)Gal(b1-4)GlcNAc(b1-2)Man(a1-3)][GlcNAc(b1-4)]Man(b1-4)GlcNAc(b1-4)GlcNAc
# How it was run: as §1
# [42] = molecular target: Neu5Ac(a2-6)Gal(b1-4)GlcNAc(b1-3)Gal(b1-3)GlcNAc
# How it was run: as §1
# [43] = molecular target: Neu5Ac(a2-6)Gal(b1-4)GlcNAc(b1-3)Gal(b1-4)GlcNAc
# How it was run: as §1
# [44] = molecular target: Neu5Ac(a2-6)Gal(b1-4)GlcNAc(b1-3)Gal(b1-4)GlcNAc(b1-2)Man(a1-3)[Neu5Ac(a2-6)Gal(b1-4)GlcNAc(b1-3)Gal(b1-4)GlcNAc(b1-2)Man(a1-6)]GalNAc
# How it was run: as §1
# [45] = molecular target: Neu5Ac(a2-6)Gal(b1-4)GlcNAc(b1-3)Gal(b1-4)GlcNAc(b1-3)Gal(b1-4)GlcNAc
# How it was run: as §1
binder,measurement,setting,value
"SspB A3vp1 (Streptococcus gordonii), Q54186 (protein) MTNEADYQAKLAAYQTELARVQKANADAKATYEKAVEDNKAKNAAIKAENEEIKQRNAVAKTDYEAKLAKYEADLAKYKKEFAAYTAALAEAESKKKQDGYLSEPRSQSLNFKSEPNAIRTIDSSVHQYGQQELDALVKSWGISPTNPDRKKSRAYSYFNAINSNNTYAKLVLEKDKPVDVTYTGLKNSSFNGKKISKVVYTYTLKETGFNDGTKMTMFASSDPTVTAWYNDYFTSTNINVKVKFYDEEGQLMNLTGGLVNFSSLNRGNGSGAIDKDAIESVRNFNGRYIPISGSSIKIHENNSAYADSSNAEKSLGARWNTSEWDTTSSPNNWYGAIVGEITQSEISFNMASSKSGNIWFAFNSNINAIGVPTKPVAPTAPTQPMYETEKPLEPAPVAPSYENEPTPPVKTPDQPEPSKPAAALEHHHHHH",glycan array binding signal (z-score),[1],-0.654
same,glycan array binding signal (z-score),[2],-0.382
same,glycan array binding signal (z-score),[3],-0.243
same,glycan array binding signal (z-score),[4],-0.678
same,glycan array binding signal (z-score),[5],-0.786
same,glycan array binding signal (z-score),[6],0.152
same,glycan array binding signal (z-score),[7],-1.03
same,glycan array binding signal (z-score),[8],-0.07
same,glycan array binding signal (z-score),[9],-0.772
same,glycan array binding signal (z-score),[10],1.61
same,glycan array binding signal (z-score),[11],2.32
same,glycan array binding signal (z-score),[12],5.21
same,glycan array binding signal (z-score),[13],-1.33
same,glycan array binding signal (z-score),[14],-0.519
same,glycan array binding signal (z-score),[15],-0.899
same,glycan array binding signal (z-score),[16],-0.799
same,glycan array binding signal (z-score),[17],-0.939
same,glycan array binding signal (z-score),[18],-0.529
same,glycan array binding signal (z-score),[19],-0.535
same,glycan array binding signal (z-score),[20],1.4
same,glycan array binding signal (z-score),[21],-0.215
same,glycan array binding signal (z-score),[22],-0.26
same,glycan array binding signal (z-score),[23],-0.279
same,glycan array binding signal (z-score),[24],-0.774
same,glycan array binding signal (z-score),[25],-0.982
same,glycan array binding signal (z-score),[26],0.384
same,glycan array binding signal (z-score),[27],-0.219
same,glycan array binding signal (z-score),[28],0.313
same,glycan array binding signal (z-score),[29],-0.881
same,glycan array binding signal (z-score),[30],-1.08
same,glycan array binding signal (z-score),[31],1.37
same,glycan array binding signal (z-score),[32],-0.749
same,glycan array binding signal (z-score),[33],0.421
same,glycan array binding signal (z-score),[34],1.05
same,glycan array binding signal (z-score),[35],-0.675
same,glycan array binding signal (z-score),[36],-0.084
same,glycan array binding signal (z-score),[37],-0.617
same,glycan array binding signal (z-score),[38],-0.153
same,glycan array binding signal (z-score),[39],0.273
same,glycan array binding signal (z-score),[40],0.627
same,glycan array binding signal (z-score),[41],-0.503
same,glycan array binding signal (z-score),[42],-0.052
same,glycan array binding signal (z-score),[43],-0.406
same,glycan array binding signal (z-score),[44],1.68
same,glycan array binding signal (z-score),[45],-0.566

# Random excerpt: two entries already listed.
binder,measurement,setting,value
"SspB A3vp1 (Streptococcus gordonii), Q54186 (protein) MTNEADYQAKLAAYQTELARVQKANADAKATYEKAVEDNKAKNAAIKAENEEIKQRNAVAKTDYEAKLAKYEADLAKYKKEFAAYTAALAEAESKKKQDGYLSEPRSQSLNFKSEPNAIRTIDSSVHQYGQQELDALVKSWGISPTNPDRKKSRAYSYFNAINSNNTYAKLVLEKDKPVDVTYTGLKNSSFNGKKISKVVYTYTLKETGFNDGTKMTMFASSDPTVTAWYNDYFTSTNINVKVKFYDEEGQLMNLTGGLVNFSSLNRGNGSGAIDKDAIESVRNFNGRYIPISGSSIKIHENNSAYADSSNAEKSLGARWNTSEWDTTSSPNNWYGAIVGEITQSEISFNMASSKSGNIWFAFNSNINAIGVPTKPVAPTAPTQPMYETEKPLEPAPVAPSYENEPTPPVKTPDQPEPSKPAAALEHHHHHH",glycan array binding signal (z-score),[33],0.421
same,glycan array binding signal (z-score),[36],-0.084
